Source: article PMC7053155
No constants are given. Whether binding was seen depends on the method and setting. A result given as binding can be weak or reduced; the word gives no strength.

Target: ZjMAPKK4 (Ziziphus jujuba Mill. (Chinese jujube))
Experiment: two-hybrid; ZjCNGC2 fused to Gal4 AD (pGADT7), ZjMAPKs/ZjMAPKKs fused to Gal4 BD (pGBKT7); co-transformed into yeast AH109; selection on -LW, -LWH, -LWH + 7 mM 3-AT and -LWAH media

binding: binds
B1: ZjCNGC2 (cyclic nucleotide gated channel 2 of Chinese jujube, Ziziphus jujuba Mill.) (protein, UniProt A0AC41Z618 1-727)
chain: MNSKGPKFVRFEDWKSEISVSYERESPTSNDGSYPGKAREHVKGVLRNIGRGFKRCYESIRSLRTKTLSSRTTYATKRPEKDAASKKKIFDPQGAFLQQWNKIFVLSCVIAISLDPLFLYIPTIDTNQQCLSLDTPLEITACVLRTFTDIFYVVHIIFQFRTGFIAPSSRVFGRGELIDDPVAIAKRYLSTYFIIDVLAILPLPQVVVLIVIPQIKGPVALVTKDILEYVIFCQYVPRLIRIIPLYREVTRTSGLFTETAWAGAAFNLFLYMLASHVAGAVWYLLAIERADRCWHDQFKNKPWDHSYLYCGEDRKDLPIADISLALNTSCPFIDPDEIKNSGIFNFGIFADALTSGIVDYDDFSTKIFYCFWWGLRNLSSLGQNLKTSTFVGEIIFAVCIAVFGLVLFSLLIGNMQKYLQSTTVRVEEMRVRRRDAEQWMTHRMLPPNLKERIKRYEQYKWQETRGADEDNLIRNLPKDLRRDIKRHLCLSLLTRVPMFEKMDEQLLDALCDRLKPVLYTEKSFVLREGDPVDEMVFIMRGNLATMTTNGGRTGFFNSVDLKAGDFCGEELLTWALDPNSATSLPTSTRTVEALTEVEAFALMADDLKFVASQFRRLHSKQLRHDFRFYSLQWRTWAACFIQVAWRRHCKRKLDKSLREAEDRLQNALANEVGSTPSLGATIYASRFAANALRTMRKNGAVSARPPQRLLPLLPQKPAEPDFTAEGR
